This note sets out measurements from PubChem BioAssay AID186 (DTP/NCI, 2004).

The subject of this test is B6D2F1 mice, nontumored toxicity test, survival. Put plainly: NCI In Vivo Anticancer Drug Screen. Data for tumor model Nontumored Animals (Toxicity Test) in B6D2F1 (BDF1) mice.
The mark [1] stands for this setting: dose: 12.5 mg/kg/injection, schedule: Q01DX001 (ip), vehicle: saline.

Shown are survivors of the treated group in tumour-free mice. Survivors were counted at the toxicity check, usually on the fifth day, unless a day is given; later deaths do not show. Schedule codes are those of the source, taken here to give the interval after Q, in days (D) or hours (H), and the number of doses after X. Marks such as (2×) give the number of equal values in this list. Some doses were run more than once; their values stand side by side, smallest first.

Turning to `N[C@H](C(=O)O)[C@@H]1CC(Cl)=NO1`, the survivor count is on record as 8 of 8 (dose: 0.19 mg/kg/injection, schedule: Q03HX024 (ip), vehicle: saline); 8 of 8 (dose: 0.25 mg/kg/injection, schedule: Q01DX009 (ip), vehicle: saline); 8 of 8 (dose: 0.39 mg/kg/injection, schedule: Q01DX009 (ip), vehicle: saline); 8 of 8 (dose: 0.39 mg/kg/injection, schedule: Q03HX008 (ip), vehicle: saline); 8 of 8 (dose: 0.39 mg/kg/injection, schedule: Q03HX016 (ip), vehicle: saline); 8 of 8 (dose: 0.39 mg/kg/injection, schedule: Q03HX024 (ip), vehicle: saline). Besides, the survivor count is recorded as 8 of 8 (dose: 0.5 mg/kg/injection, schedule: Q01DX009 (ip), vehicle: saline); 5 of 5 (dose: 0.75 mg/kg/injection, schedule: Q01DX009 (ip), vehicle: saline); 8 of 8 (dose: 0.78 mg/kg/injection, schedule: Q01DX009 (ip), vehicle: saline); 8 of 8 (dose: 0.78 mg/kg/injection, schedule: Q03HX008 (ip), vehicle: saline); 8 of 8 (dose: 0.78 mg/kg/injection, schedule: Q03HX016 (ip), vehicle: saline); 8 of 8 (dose: 0.78 mg/kg/injection, schedule: Q03HX024 (ip), vehicle: saline). Besides, the survivor count reads like this: (dose: 1.0 mg/kg/injection, schedule: Q01DX009 (ip), vehicle: saline) 7 of 7 and 8 of 8; (dose: 1.5 mg/kg/injection, schedule: Q01DX009 (ip), vehicle: saline) 3 of 4; (dose: 1.56 mg/kg/injection, schedule: Q01DX009 (ip), vehicle: saline) 8 of 8; (dose: 1.56 mg/kg/injection, schedule: Q03HX008 (ip), vehicle: saline) 8 of 8; (dose: 1.56 mg/kg/injection, schedule: Q03HX016 (ip), vehicle: saline) 8 of 8; (dose: 1.56 mg/kg/injection, schedule: Q03HX024 (ip), vehicle: saline) 7 of 7. Further, the survivor count is on record as 8 of 8 (dose: 2.0 mg/kg/injection, schedule: Q01DX009 (ip), vehicle: saline); 5 of 5 (dose: 3.0 mg/kg/injection, schedule: Q01DX009 (ip), vehicle: saline); 8 of 8 (dose: 3.12 mg/kg/injection, schedule: Q01DX009 (ip), vehicle: saline); 8 of 8 (dose: 3.12 mg/kg/injection, schedule: Q03HX008 (ip), vehicle: saline); 8 of 8 (dose: 3.12 mg/kg/injection, schedule: Q03HX016 (ip), vehicle: saline); 8 of 8 (dose: 3.12 mg/kg/injection, schedule: Q03HX024 (ip), vehicle: saline). Moreover, the survivor count (dose: 4.0 mg/kg/injection, schedule: Q01DX009 (ip), vehicle: saline) is 7 of 8 and 8 of 8; the survivor count (dose: 6.0 mg/kg/injection, schedule: Q01DX009 (ip), vehicle: saline) is recorded as 5 of 5; the survivor count (dose: 6.25 mg/kg/injection, schedule: Q01DX009 (ip), vehicle: saline) was 8 of 8; the survivor count (dose: 6.25 mg/kg/injection, schedule: Q03HX008 (ip), vehicle: saline) was 8 of 8; the survivor count (dose: 6.25 mg/kg/injection, schedule: Q03HX016 (ip), vehicle: saline) was 8 of 8; the survivor count (dose: 6.25 mg/kg/injection, schedule: Q03HX024 (ip), vehicle: saline) is 8 of 8. Moreover, the survivor count (dose: 6.25 mg/kg/injection, schedule: Q04DX003 (ip), vehicle: saline) is 8 of 8; the survivor count (dose: 8.0 mg/kg/injection, schedule: Q01DX009 (ip), vehicle: saline) is given as 8 of 8; the survivor count (dose: 12.0 mg/kg/injection, schedule: Q01DX009 (ip), vehicle: saline) is 5 of 5; the survivor count under setting [1] is reported as 8 of 8; the survivor count (dose: 12.5 mg/kg/injection, schedule: Q01DX009 (ip), vehicle: saline) is recorded as 8 of 8; the survivor count (dose: 12.5 mg/kg/injection, schedule: Q03HX008 (ip), vehicle: saline) is recorded as 8 of 8. The survivor count is, setting by setting: (dose: 12.5 mg/kg/injection, schedule: Q03HX016 (ip), vehicle: saline) 8 of 8; (dose: 12.5 mg/kg/injection, schedule: Q03HX024 (ip), vehicle: saline) 8 of 8; (dose: 12.5 mg/kg/injection, schedule: Q04DX003 (ip), vehicle: saline) 8 of 8; (dose: 12.5 mg/kg/injection, schedule: Q08DX002 (ip), vehicle: saline) 8 of 8; (dose: 16.0 mg/kg/injection, schedule: Q01DX009 (ip), vehicle: saline) 8 of 8; (dose: 25.0 mg/kg/injection, schedule: Q01DX001 (ip), vehicle: saline) 8 of 8. In addition, the survivor count was 5 of 8 (dose: 25.0 mg/kg/injection, schedule: Q03HX008 (ip), vehicle: saline); 8 of 8 (dose: 25.0 mg/kg/injection, schedule: Q03HX016 (ip), vehicle: saline); 8 of 8 (dose: 25.0 mg/kg/injection, schedule: Q04DX003 (ip), vehicle: saline); 8 of 8 (dose: 25.0 mg/kg/injection, schedule: Q08DX002 (ip), vehicle: saline); 7 of 8 and 8 of 8 (dose: 32.0 mg/kg/injection, schedule: Q01DX009 (ip), vehicle: saline); 8 of 8 (dose: 50.0 mg/kg/injection, schedule: Q01DX001 (ip), vehicle: saline). Further, the survivor count is, setting by setting: (dose: 50.0 mg/kg/injection, schedule: Q03HX008 (ip), vehicle: saline) 4 of 8; (dose: 50.0 mg/kg/injection, schedule: Q04DX003 (ip), vehicle: saline) 8 of 8; (dose: 50.0 mg/kg/injection, schedule: Q08DX002 (ip), vehicle: saline) 8 of 8; (dose: 100.0 mg/kg/injection, schedule: Q01DX001 (ip), vehicle: saline) 8 of 8; (dose: 100.0 mg/kg/injection, schedule: Q04DX003 (ip), vehicle: saline) 8 of 8; (dose: 100.0 mg/kg/injection, schedule: Q08DX002 (ip), vehicle: saline) 8 of 8. For the same molecule, the survivor count is, setting by setting: (dose: 200.0 mg/kg/injection, schedule: Q01DX001 (ip), vehicle: saline) 8 of 8; (dose: 200.0 mg/kg/injection, schedule: Q04DX003 (ip), vehicle: saline) 8 of 8; (dose: 200.0 mg/kg/injection, schedule: Q08DX002 (ip), vehicle: saline) 8 of 8; (dose: 400.0 mg/kg/injection, schedule: Q01DX001 (ip), vehicle: saline) 8 of 8; (dose: 400.0 mg/kg/injection, schedule: Q08DX002 (ip), vehicle: saline) 8 of 8.
As to `OC(C1CO1)C(O)C1CO1` (stereo not drawn), the survivor count was 10 of 10 (dose: 6.7 mg/kg/injection, schedule: Q04DX003 (ip), vehicle: saline); 10 of 10 (2×) (dose: 10.0 mg/kg/injection, schedule: Q01DX001 (ip), vehicle: saline); 10 of 10 (dose: 10.0 mg/kg/injection, schedule: Q04DX003 (ip), vehicle: saline); 10 of 10 (2×) under setting [1]; 10 of 10 (2×) (dose: 15.0 mg/kg/injection, schedule: Q01DX001 (ip), vehicle: saline); 9 of 10 and 10 of 10 (dose: 15.0 mg/kg/injection, schedule: Q04DX003 (ip), vehicle: saline).
In the case of `O=c1[nH]cc(N(CCCl)CCCl)c(=O)[nH]1`, the survivor count reads like this: (dose: 2.4 mg/kg/injection, schedule: Q01DX001 (ip), vehicle: gum acacia) 10 of 10; (dose: 3.6 mg/kg/injection, schedule: Q01DX001 (ip), vehicle: gum acacia) 10 of 10; (dose: 5.4 mg/kg/injection, schedule: Q01DX001 (ip), vehicle: gum acacia) 10 of 10.
For `CCOC(=O)C(CC(C)C)NC(=O)C(Cc1ccc(N(CCCl)CCCl)cc1)NC(C)=O` (stereo not drawn), the survivor count was 10 of 10 (dose: 62.5 mg/kg/injection, schedule: Q01DX001 (oral), vehicle: alcohol); 9 of 10 (dose: 125.0 mg/kg/injection, schedule: Q01DX001 (oral), vehicle: alcohol); 10 of 10 (dose: 250.0 mg/kg/injection, schedule: Q01DX001 (oral), vehicle: alcohol); 10 of 10 (dose: 500.0 mg/kg/injection, schedule: Q01DX001 (oral), vehicle: alcohol).
On to `O=NN(CCF)C(=O)NC1CCCCC1`, for which the survivor count runs as follows: (dose: 2.5 mg/kg/injection, schedule: Q01DX001 (ip), vehicle: saline + alcohol) 10 of 10; (dose: 5.1 mg/kg/injection, schedule: Q01DX001 (ip), vehicle: saline + alcohol) 10 of 10; (dose: 10.2 mg/kg/injection, schedule: Q01DX001 (ip), vehicle: saline + alcohol) 10 of 10; (dose: 20.4 mg/kg/injection, schedule: Q01DX001 (ip), vehicle: saline + alcohol) 10 of 10; (dose: 40.7 mg/kg/injection, schedule: Q01DX001 (ip), vehicle: saline + alcohol) 10 of 10; (dose: 81.4 mg/kg/injection, schedule: Q01DX001 (ip), vehicle: saline + alcohol) 10 of 10.
